The results in this text go back to PubChem BioAssay AID2685 (National Center for Advancing Translational Sciences (NCATS), 2010).

The list shows a part of the results. Shown are side measurements of this screen, not its main read-out; they come without a call. Compounds called inactive in the main read-out are mostly missing here. The note in brackets gives the kind of curve behind each potency; many fits are weak.

The nature of this assay: qHTS Assay for Lipid Storage Modulators in Drosophila S3 Cells.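 On cell number change: cells counted by Cell Tracker Red CMTPX staining in the red channel.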 The note with it: BODIPY lipid droplet fluorescence, 18-24 h; for cell number change: measured here: cell count max response, cells fed with added oleic acid. The essentials: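 Laser-scanning cytometry quantifies lipid droplet accumulation (500–530 nm total intensity; droplet/cell object ratio) in oleic acid-fed (400 uM added) Drosophila S3 cells treated with a concentration series. 20 uM Triacsin C defined 100% inhibition.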

Setting [1] is: measured here: lipid fluorescence (Fed channel) AC50, cells fed with added oleic acid.
Setting [2] is: measured here: cell number channel AC50, cells fed with added oleic acid.

`O=C(Nc1nccs1)C1C2/C=C\CCCCC21` (stereo unspecified): the cell number change was -29.6%. Consider `Cc1cccc(C(=O)N2c3ccccc3C(=O)OC2c2ccc3c(c2)OCO3)c1` (stereo unspecified), for which the AC50 under setting [1] was 0.00517 µM [falling, full curve, poor fit].

Consider `Cc1ccc(/C=C/C(=O)OCC(=O)N2CC(=O)Nc3ccccc32)o1`, for which the cell number change worked out at 30.3%. For the same molecule, the AC50 under setting [2] was 0.259 µM [rising, full curve, poor fit].

As to `O=C(COC(=O)C1C2CC3OC(=O)C1C3C2)Nc1cccc(Cl)c1` (stereo unspecified), the cell number change was found to be 8.12%. The AC50 under setting [1] was 2.91 µM [rising, single point]. Regarding `COc1cccc(CN2CCNC(=O)C2CC(=O)N(C)CC2CCOCC2)c1` (stereo unspecified), the cell number change came to 7.5%. Moreover, under setting [1], the AC50 was 29.1 µM [rising, single point]. As to `C[C@H](NC(=O)N1CCn2c1nc1ccccc12)C(=O)NC1CC1`, the cell number change was -16.5%. Moreover, the AC50 under setting [1] is 6.51 µM [falling, single point].

In the case of `O=C(c1ccco1)N1CCN(S(=O)(=O)c2ccc(S(=O)(=O)NC3CCCCC3)cc2)CC1`, the cell number change is -13.4%. Moreover, the AC50 under setting [1] is 0.00461 µM [falling, full curve, poor fit].

`Cc1cc(OCCN2CCOCC2)ccc1C(C)C`: the cell number change was 15.2%. Further, the AC50 under setting [1] was 0.146 µM [rising, full curve, poor fit].

`COc1ccc(-c2nn(CCC(=O)O)cc2CCC(=O)O)cc1`: the cell number change was -21.7%. In addition, the AC50 under setting [1] was 1.16 µM [falling, full curve]. For the molecule `O=C(NCc1ccccc1Cl)c1cc2c(s1)CS(=O)(=O)C2`, the AC50 under setting [1] is 0.366 µM [rising, full curve, poor fit].

As to `COc1ccc(-c2nc(CSCC(=O)NC3CCN(Cc4ccccc4)CC3)c(C)o2)cc1OC`, the cell number change stood at 21.6%. Moreover, the AC50 under setting [2] was 0.116 µM [rising, full curve, poor fit]. Moreover, the AC50 under setting [1] is 6.51 µM [rising, single point]. Turning to `COc1ccc(C2=NN(C(=O)c3ccccc3)C(c3ccc(OC)c(OC)c3)C2)c(O)c1` (stereo unspecified), the cell number change is -20.8%. For the same molecule, the AC50 under setting [1] was 29.1 µM [falling, single point]. Turning to `CS(=O)(=O)N(CC(=O)N1CCCC1)c1ccc(Cl)c(Cl)c1`, the cell number change was determined as 36.2%. Also, under setting [2], the AC50 was 9.2 µM [rising, partial curve, poor fit]. As for `N=c1c2c(-c3ccccc3)c(-c3ccccc3)n(Cc3ccco3)c2ncn1Cc1ccccc1`, the cell number change was -4.85%. For the same molecule, the AC50 under setting [2] is 0.13 µM [rising, full curve, poor fit]. Further, the AC50 under setting [1] is 6.51 µM [rising, single point].

With `Cc1ccc(-c2nn(C)c(=O)c3ccccc23)cc1CNC(=O)NC1CCCCC1`, the cell number change came out at 25.8%. Moreover, the AC50 under setting [1] was 0.58 µM [rising, full curve]. Turning to `O=C(c1ccc2nc(Cc3cccc(Cl)c3)oc2c1)N1CCOCC1`, the cell number change is 5.49%. For the same molecule, the AC50 under setting [2] is 0.82 µM [rising, full curve, poor fit]. The AC50 under setting [1] is 6.51 µM [rising, single point].

Regarding `Cc1ccc(CN2CCSc3ccc(C(=O)NCCCN4CCOCC4)cc32)cc1`, the cell number change was -5.9%. Besides, the AC50 under setting [1] is 6.51 µM [rising, single point]. On to `Cc1cc(C)n(C(=O)CCC(=O)NCc2ccccc2)n1`, for which the cell number change is -31.7%. In addition, the AC50 under setting [2] was 5.17 µM [falling, partial curve, poor fit]. The AC50 under setting [1] is 0.206 µM [falling, full curve, poor fit].

Consider `Cc1ccc(CNC(=O)c2cncc(Br)c2)cc1`, for which the cell number change is -11.3%.

Take `Cc1c(OCC(=O)NCc2ccccn2)ccc2c(-c3ccccc3)cc(=O)oc12`: the cell number change was 5.18%. Also, the AC50 under setting [1] is 29.1 µM [falling, single point].

Regarding `Cc1cc(C(=O)N[C@H](c2ccccc2)[C@@]2(C)C[C@@H]2[C@@H](C)C(=O)Nc2ccc3ccccc3c2)n(C)n1`, the cell number change turned out to be 1.72%. Moreover, under setting [1], the AC50 was 32.6 µM [falling, single point].

`Cn1cnnc1SCC(=O)Nc1ccccc1C(=O)NC1CC1`: the AC50 is, setting by setting: under setting [2], 1.16 µM [rising, full curve, poor fit]; under setting [1], 0.82 µM [rising, full curve]. Take `Cc1onc(CO)c1C(=O)Nc1nccs1`: the cell number change was 22.5%. For the same molecule, the AC50 under setting [2] was 0.00517 µM [rising, full curve, poor fit]. As to `Cc1ccc(C(=O)NC(=S)Nc2ccc(NC(=O)c3cccc(Cl)c3)cc2)cc1`, the cell number change was -1.36%. Also, the AC50 under setting [1] is 29.1 µM [falling, single point]. `CSc1ccccc1C(=O)Nc1ccc(C)c(C)c1`: the cell number change was 46%. The AC50 under setting [2] is 3.26 µM [rising, full curve, poor fit]. Turning to `COc1ccccc1CNC(=O)Cc1ccc(C)cc1`, the cell number change is -17.6%. For the same molecule, under setting [1], the AC50 was 0.517 µM [rising, single point].

Regarding `Cc1nc(-c2cccc(S(=O)(=O)N3CC(C)OC(C)C3)c2)cs1` (stereo unspecified), the cell number change worked out at 10.5%. In addition, under setting [1], the AC50 is 5.8 µM [falling, single point]. Consider `CCN(CC(=O)NC(=O)NCc1ccccc1)Cc1nc2ccccc2c(=O)[nH]1`, for which the cell number change was -7.29%. Moreover, the AC50 under setting [2] was 0.461 µM [rising, partial curve, poor fit]. Besides, the AC50 under setting [1] is 0.103 µM [rising, full curve, poor fit]. As to `Cc1ccc(NC(=O)C2CCCN2S(=O)(=O)c2ccc3c(c2)n(C)c(=O)c(=O)n3C)c(C)c1` (stereo unspecified), the cell number change is 23%. For the same molecule, the AC50 under setting [1] was 0.58 µM [rising, partial curve, poor fit]. As for `CC1=C(C(=O)NCc2ccccc2)C(c2cccs2)NC(=S)N1` (stereo unspecified), the cell number change is -6.39%. Consider `Cc1ccc(CNC(=O)CCC(=O)N2CC(C)Oc3ccc(Cl)cc32)cc1` (stereo unspecified), for which the cell number change was -15.3%. Further, under setting [1], the AC50 was 16.4 µM [falling, single point]. As to `Cc1ccc(OCC(=O)NS(=O)(=O)c2ccc(Cl)cc2)cc1`, the cell number change turned out to be 6.16%. Regarding `COc1ccc(-c2cc(OC)c3ccccc3n2)cc1`, the cell number change is 3.73%. Further, the AC50 under setting [1] was 20.6 µM [rising, single point]. For the molecule `O=[N+]([O-])c1cccc(S(=O)(=O)Nc2ccc(Cc3ccncc3)cc2)c1`, the cell number change is 9.03%. Further, the AC50 under setting [1] is 0.092 µM [rising, single point]. With `Cc1ccc(NC(=O)C2CCCN2C(=O)Oc2ccccc2)cc1C` (stereo unspecified), the cell number change came out at 67.1%. Moreover, the AC50 under setting [2] is 9.2 µM [rising, partial curve]. For the same molecule, the AC50 under setting [1] was 0.82 µM [rising, single point].

As to `Cc1cccc(N2C(=O)c3cccc(Oc4ccc(Cl)cc4)c3C2=O)c1`, the cell number change was -5.97%. Under setting [1], the AC50 is 5.8 µM [rising, partial curve]. Turning to `CCC(C)SCC(=O)Nc1ccc(S(=O)(=O)N2CCOCC2)cc1OC` (stereo unspecified), the cell number change was -18.6%. Moreover, the AC50 under setting [1] is 2.06 µM [rising, single point]. As to `CN(C)c1ccc(/C=C2\N=C(C(C)(C)C)OC2=O)cc1`, the cell number change turned out to be 9.25%. Further, the AC50 under setting [1] was 4.11 µM [falling, single point]. In the case of `CCOc1cccc(NC(=O)Cc2cccs2)c1`, the cell number change stood at 2.58%. Also, the AC50 under setting [1] is 0.651 µM [rising, full curve]. Regarding `CC(C)(C)n1cnc(C(N)=O)c1N`, the cell number change is -2.71%. Further, the AC50 under setting [1] was 0.103 µM [falling, full curve, poor fit]. Take `CN(C)CCNC(=O)c1ccc2c(c1)NC(=O)c1ccccc1S2`: the cell number change was determined as 13.9%.

On to `COc1ccccc1CNC1CCN(Cc2ccccc2)CC1`, for which the cell number change is 6.08%. Under setting [1], the AC50 is 5.8 µM [rising, single point]. As for `O=C(COc1ccc(S(=O)(=O)NC2CCCCC2)cc1)Nc1ccc2c(c1)OCCO2`, the cell number change came out at 31%. In addition, the AC50 under setting [2] was 32.6 µM [rising, single point]. For the same molecule, the AC50 under setting [1] is 6.51 µM [rising, partial curve]. In the case of `Cc1cc(=O)oc2c1c(C)nn2-c1nn[nH]n1`, the cell number change is -23.8%. Moreover, the AC50 under setting [1] is 5.8 µM [falling, full curve]. Consider `CC(=O)c1ccc(S(=O)(=O)Nc2ccccc2C(=O)NC2CC2)cc1`, for which the cell number change was found to be 0.746%. Under setting [2], the AC50 is 5.17 µM [rising, single point]. The AC50 under setting [1] is 6.51 µM [rising, single point].

With `COc1ccc2cc(C(=O)N/N=C/c3cc(OC)c(OC)c(OC)c3)[nH]c2c1`, the half-maximal activity concentration (AC50) under setting [1] is 29.1 µM [rising, single point]. As for `O=C(COc1ccccc1)Nc1nnc(S(=O)(=O)N2CCCCCC2)s1`, the cell number change stood at 21.9%. For the same molecule, under setting [1], the AC50 was 29.1 µM [falling, single point]. For `CCCCSc1nc(NCc2ccco2)c2c3c(sc2n1)COC(C)(C)C3`, the cell number change was -12.8%. In addition, the AC50 under setting [1] was 18.4 µM [rising, single point]. For the molecule `CCOc1ccc2c(c1)c1nnc(SCC(=O)N3CCCCC3C)nc1n2C` (stereo unspecified), the cell number change is -19.4%. In the case of `CCOC(=O)N1CCN(C(=O)c2nn(C)c3c2CSc2ccccc2-3)CC1`, the cell number change is -7.2%. Moreover, the half-maximal activity concentration (AC50) under setting [1] is 25.9 µM [falling, single point]. Take `CCCCc1cc2c(c(NC(=O)CC)n1)c(=O)oc1ccccc12`: the cell number change was -0.583%.

As for `CCC(NC(=O)Cc1c(C)c2c(cc(C)c3c(C)c(C)oc32)oc1=O)C(=O)O` (stereo unspecified), the AC50 under setting [1] was 29.1 µM [rising, single point].

For the molecule `Cc1ccsc1C(=O)NNC(=O)c1ccc(NS(=O)(=O)c2cccs2)cc1`, the cell number change is 5.62%.

As to `Cn1[nH]c(C(F)(F)F)c(C=Nc2ccc(Cl)cc2)c1=O`, the cell number change is -4.9%.

For `O=C(N/N=C/c1ccc[nH]1)c1c[nH]c2ccccc12`, the cell number change is -19.9%. Further, the AC50 under setting [1] was 11.6 µM [rising, single point]. As for `COc1ccc(C2CC(c3cccc(OC)c3OC)n3nnnc3N2)cc1` (stereo unspecified), the cell number change is -1.38%.

On to `COc1ccc(/C=C2\SC(=O)N(CC(=O)NCCC(C)C)C2=O)cc1OC`, for which the cell number change is -34.5%. Also, the AC50 under setting [2] was 14.6 µM [falling, partial curve]. Also, under setting [1], the AC50 was 0.366 µM [falling, full curve]. In the case of `CN(C)c1ccc(C=NC(CO)C(O)c2ccc([N+](=O)[O-])cc2)cc1` (stereo unspecified), the cell number change worked out at 25.4%. Also, under setting [1], the AC50 is 20.6 µM [rising, single point]. Turning to `Cc1ccnc(NC(c2ccccc2O)c2oc(CO)cc(=O)c2O)c1` (stereo unspecified), the cell number change amounted to 21.3%. For the same molecule, the AC50 under setting [1] was 32.6 µM [rising, single point]. In the case of `O=C(c1cc([N+](=O)[O-])cc([N+](=O)[O-])c1)N1CCN(C(=O)c2ccco2)CC1`, the cell number change is -16.4%. Besides, the half-maximal activity concentration (AC50) under setting [2] is 0.00461 µM [falling, full curve, poor fit]. For the same molecule, the AC50 under setting [1] is 0.146 µM [falling, full curve, poor fit].
